# Some of the results follow. These are raw signals, not scaled to a control.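 In the initial screen, polymyxin B was used at a concentration that permeabilizes Salmonella's outer membrane but not its inner membrane. Maximum growth was set by DMSO wells with or without polymyxin B. Since plates varied, data were ranked per plate, and compounds giving the lowest OD600 advanced as hits.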
# Tested on: Salmonella enterica serovar Typhimurium SL1344
# Test: bacterial growth OD600 after 18 h with compound and polymyxin B; higher = more bacterial growth (less inhibition)
# Settings: 50 µM, Mueller-Hinton broth
Compound,bacterial growth OD600 (polymyxin B 0.75 µg/mL),bacterial growth OD600 (polymyxin B 1 µg/mL)
COc1cccc(CC(C2CCN(C(=O)Cc3c(C)noc3C)CC2)N(C)C(=O)c2ccsc2)c1 (stereo not given),0.833,
CN(CCCN1CCOCC1)C(=O)CCN1Cc2ccccc2OC(c2ccccc2)C1 (stereo not given),0.802,
O=C(CCC1(Cc2ccccc2)CCC(=O)N1)NC[C@H]1CCc2ccccc2O1 (stereo not given in full),0.846,
O=C1N(Cc2ccc(F)c(F)c2)CCCC1(O)CNCC1CCCCC1 (stereo not given),,0.268
CN(C)S(=O)(=O)N1C[C@H]2OC(=O)N(CCc3cccc(Cl)c3)[C@H]2C1,,0.877
Cc1ccccc1C1(CC(=O)N2CCC(c3ccc(F)cc3)C2)CC(=O)N(Cc2cccnc2)C1=O (stereo not given),-0.001,
Cc1cccc(-n2cc(CN(C)Cc3n[nH]c(=O)[nH]3)c(-c3cccc(F)c3)n2)c1,,0.852
CCN(CC)CCN(C)C(=O)c1ccc(OC2CCN(Cc3ccccn3)CC2)cc1,,1.03
O=C(/C=C/c1ccc(F)c(F)c1)NCC1CC(Cc2ccc(F)cc2)=NO1 (stereo not given),0.683,
CC(C)[C@H](NC(=O)C1(N(C)Cc2ccccc2)Cc2ccccc2C1)C(N)=O,0.247,
Cc1cc(C)n(CCN(C)c2ccc(-c3nc(C4CC4)no3)cn2)n1,0.645,
CCCn1c(C)c(CC(=O)N2CCOCC2)c2c1CC(C)(C)CC2=O,,0.797
O=C(NCCc1ccccn1)C1CC12CCN(C(=O)/C=C/c1cccc(F)c1F)CC2 (stereo not given),0.806,
CCO[C@H]1[C@H](NC(=O)c2ccco2)c2ccccc2C12CCN(Cc1ccc(OC)c(O)c1)CC2,0.798,
COc1ccccc1C1CCCN1Cc1nc(-c2ccc(OC)c(C)c2OC)oc1C (stereo not given),,0.698
O=C(c1nc2sccn2c1CN1CCN(c2ccccc2F)CC1)N1CCCCC1,,0.952
Cn1cnnc1SCCNC(=O)c1cc(NC(=O)C2CCCO2)c2c(c1)nc(C1CCC1)n2C (stereo not given),0.741,
Cn1cc(CN2CCCC(CCc3ccc(F)cc3F)C2)cn1 (stereo not given),1.03,
Cc1ccc(OCc2cc(C(=O)N3CCCCC3c3nccs3)no2)cn1 (stereo not given),,0.85
COc1ccc(/C=C/CN2CCC3(CC2)c2ccccc2[C@@H](NC(=O)c2ccco2)[C@@H]3OC)cc1,0.8,
CCOC(=O)CC1CCCCN1Cc1nc(N2CCCN(C(C)=O)CC2)c2cccc(C)c2n1 (stereo not given),0.819,
CSCCCNC(=O)c1cc(Cn2c(C)nc3ccccc32)on1,,0.776
CC(C)Oc1ccc(CN2CC[C@@H](N3CCN(c4ccccn4)CC3)[C@H](O)C2)cc1CO,0.806,
CN(Cc1cn(Cc2ccccc2)nc1-c1ccc2c(c1)OCO2)CC1CCOCC1,,1.05
CCN1CC(CN(C)Cc2nc(-c3ccc(OC)c(OC)c3OC)no2)CC1=O (stereo not given),,0.965
CSc1ncc(CN(C)CC2CCCN(CCc3ccccc3C)C2)cn1 (stereo not given),,0.773
Cc1cc(-c2nnc(CCC(=O)N3CCN(C4CCCC4)CC3)o2)c(C)o1,,0.746
COCCCN1C(=O)CC(CC(=O)N(C)C(C2CC2)C2CC2)(c2ccccc2OC)C1=O (stereo not given),0.49,
CS(=O)(=O)N1CCC(C2CCN(c3ncccn3)CC2)C1 (stereo not given),0.829,
Cc1nonc1CN(C)C(=O)C1CCN(c2nc(-c3ccccc3)nc3c2CCC3)CC1,,0.004

# Single records, from the list above.
# `Cc1ccc(OCc2cc(C(=O)N3CCCCC3c3nccs3)no2)cn1` (stereo not given) is listed with bacterial growth OD600 (polymyxin B 1 µg/mL): 0.85
# `Cn1cnnc1SCCNC(=O)c1cc(NC(=O)C2CCCO2)c2c(c1)nc(C1CCC1)n2C` (stereo not given) is listed with bacterial growth OD600 (polymyxin B 0.75 µg/mL): 0.741
